Data as given in patent US9102678B2, “Compounds and methods for inhibiting mitotic progression” (Millennium Pharmaceuticals, Inc., priority 2004, dated 2015).
Some entries share one result that the patent states for a list of compounds.

The chains behind the UniProt entries cited, without tags or fusion partners. Where a name states a change or a piece, a line headed by the entry shows the natural chain unless it says otherwise.
UniProt P97477: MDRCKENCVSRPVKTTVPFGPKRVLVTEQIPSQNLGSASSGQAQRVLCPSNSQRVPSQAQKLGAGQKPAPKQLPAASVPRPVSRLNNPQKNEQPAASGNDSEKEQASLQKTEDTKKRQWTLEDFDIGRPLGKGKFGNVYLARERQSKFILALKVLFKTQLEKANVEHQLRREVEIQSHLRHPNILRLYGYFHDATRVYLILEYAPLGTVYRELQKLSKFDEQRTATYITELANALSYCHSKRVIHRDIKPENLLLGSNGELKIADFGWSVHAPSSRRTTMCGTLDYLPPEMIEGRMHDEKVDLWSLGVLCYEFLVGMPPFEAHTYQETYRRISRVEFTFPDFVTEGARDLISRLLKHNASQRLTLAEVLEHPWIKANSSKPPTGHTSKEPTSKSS

Molecular target: T1, recombinant murine Aurora A enzyme (Mus musculus, UniProt P97477)
T1 construct: hexahistidine (His6) (N); made in house; host or cells: insect cells, baculovirus (Bac-to-Bac, Invitrogen)
Assay: Aurora A DELFIA Kinase Assay
Assay type: biochemical
Settings: 250 μM ATP, threshold less than or equal to 1.0 μM
Text: Recombinant mouse Aurora A with an amino-terminus hexahistidine tag (His-Aurora A) was expressed using a standard baculovirus vector and insect cell expression system (Bac-to-Bac®, Invitrogen).
Soluble, recombinant mouse Aurora A was purified from insect cells using Ni-NTA agarose (Qiagen) as described by the manufacturer and further purified over an S75 size exclusion column (Amersham Pharmacia Biotech).
Aurora A DELFIA® Kinase Assay
The enzymatic reaction mixture, with and without Aurora inhibitors, was incubated for 15 minutes at room temperature before termination with 100 μL of stop buffer (1% BSA, 0.05% Surfact-AMPS-20, and 100 mM EDTA). A total of 100 μL of the enzyme reaction mixture was transferred to wells of a Neutravidin-coated 96-well plate (Pierce) and incubated at room temperature for 30 minutes. The wells were washed with wash buffer (25 mM Tris, 150 mM sodium chloride, and 0.1% Tween 20) and incubated for 1 hour with 100 μL of antibody reaction mixture containing 1% BSA, 0.05% Surfact-AMPS-20, anti-phospho-PKA rabbit polyclonal antibody (1:2000, New England Biolabs), and europium labeled anti-rabbit IgG (1:2000, Perkin Elmer). The wells were washed and then the bound europium was liberated using 100 μL of Enhancement Solution (Perkin Elmer). Quantification of europium was done using a Wallac™ EnVision (Perkin Elmer).

SMILES | IC50
C[C@@H]1CNCCN1C(=O)c1ccc(Nc2ncc3c(n2)-c2ccc(Cl)cc2C(c2c(F)cccc2F)=NC3)cc1 [Compound I-366, 9-chloro-7-(2,6-difluorophenyl)-N-(4-{[(2R)-2-methylpiperazin-1-yl]carbonyl}phenyl)-5H-pyrimido[5,4-d][2]benzazepin-2-amine] | ≤ 1 µM
NC1CCN(C(=O)c2ccc(Nc3ncc4c(n3)-c3ccc(Cl)cc3C(c3ccccn3)=NC4)cc2)CC1 [Compound I-298, N-{4-[(4-aminopiperidin-1-yl)carbonyl]phenyl}-9-chloro-7-pyridin-2-yl-5H-pyrimido[5,4-d][2]benzazepin-2-amine] | ≤ 1 µM
O=C(O)c1ccc(Nc2ncc3c(n2)-c2ccc(Cl)cc2C(c2cc(F)ccc2F)=NC3)cc1 [Compound I-91, 4-[9-Chloro-7-(2,5-difluoro-phenyl)-5H-benzo[c]pyrimido[4,5-e]azepin-2-ylamino]-benzoic acid] | ≤ 1 µM
N=C(N)Nc1ccc(Nc2ncc3c(n2)-c2ccc(Cl)cc2C(c2c(F)cccc2F)=NC3)cc1 [Compound I-245, N-(4-{[9-chloro-7-(2,6-difluorophenyl)-5H-pyrimido[5,4-d][2]benzazepin-2-yl]amino}phenyl)guanidine] | ≤ 1 µM
CNC1CCN(C(=O)c2cc(Nc3ncc4c(n3)-c3ccc(Cl)cc3C(c3c(F)cccc3F)=NC4)ccc2Cl)C1 (stereo not drawn) [Compound I-281, 9-chloro-N-(4-chloro-3-{[3-(methylamino)pyrrolidin-1-yl]carbonyl}phenyl)-7-(2,6-difluorophenyl)-5H-pyrimido[5,4-d][2]benzazepin-2-amine] | ≤ 1 µM
O=C(O)c1cccc(Nc2ncc3c(n2)-c2ccc(Cl)cc2C(c2c(F)cccc2F)=NC3)c1 [Compound I-203, 3-{[9-chloro-7-(2,6-difluorophenyl)-5H-pyrimido[5,4-d][2]benzazepin-2-yl]amino}benzoic acid] | ≤ 1 µM
COc1ccc2c(c1)C(c1ccccc1F)=NCc1cnc(Nc3ccc(C(=O)O)cc3)nc1-2 [Compound I-137, 4-[7-(2-Fluoro-phenyl)-9-methoxy-5H-benzo[c]pyrimido[4,5-e]azepin-2-ylamino]-benzoic acid] | ≤ 1 µM
O=C(c1ccc(Nc2ncc3c(n2)-c2ccc(Cl)cc2C(c2ccccc2F)=NC3)cc1)N(CCO)CCO [Compound I-27, 4-[9-Chloro-7-(2-fluoro-phenyl)-5H-benzo[c]pyrimido[4,5-e]azepin-2-ylamino]-N,N-bis-(2-hydroxy-ethyl)-benzamide] | ≤ 1 µM
COc1cccc(F)c1C1=NCc2cnc(Nc3ccc(C(=O)N4CCNCC4)cc3)nc2-c2ccc(Cl)cc21 [Compound I-243, 9-chloro-7-(2-fluoro-6-methoxyphenyl)-N-[4-(piperazin-1-ylcarbonyl)phenyl]-5H-pyrimido[5,4-d][2]benzazepin-2-amine] | ≤ 1 µM
CN(C)C1CCN(C(=O)c2cccc(Nc3ncc4c(n3)-c3ccc(Cl)cc3C(c3c(F)cccc3F)=NC4)c2)C1 (stereo not drawn) [Compound I-206, 9-chloro-7-(2,6-difluorophenyl)-N-(3-{[3-(dimethylamino)pyrrolidin-1-yl]carbonyl}phenyl)-5H-pyrimido[5,4-d][2]benzazepin-2-amine] | ≤ 1 µM
O=C(O)C1CN(C(=O)c2ccc(Nc3ncc4c(n3)-c3ccc(Cl)cc3C(c3c(F)cccc3F)=NC4)cc2)CCN1 (stereo not drawn) [Compound I-266, 4-(4-{[9-chloro-7-(2,6-difluorophenyl)-5H-pyrimido[5,4-d][2]benzazepin-2-yl]amino}benzoyl)piperazine-2-carboxylic acid] | ≤ 1 µM
CN(CCc1ccccn1)C(=O)c1ccc(Nc2ncc3c(n2)-c2ccc(Cl)cc2C(c2ccccc2F)=NC3)cc1 [Compound I-160, 4-[9-Chloro-7-(2-fluoro-phenyl)-5H-benzo[c]pyrimido[4,5-e]azepin-2-ylamino]-N-methyl-N-(2-pyridin-2-yl-ethyl)-benzamide] | ≤ 1 µM
O=C(O)c1ccc(Nc2ncc3c(n2)-c2ccc(C(=O)O)cc2C(c2ccccc2F)=NC3)cc1 [Compound I-249, 2-[(4-carboxyphenyl)amino]-7-(2-fluorophenyl)-5H-pyrimido[5,4-d][2]benzazepine-9-carboxylic acid] | ≤ 1 µM
COc1ccccc1C1=NCc2cnc(Nc3ccc(C(=O)NCCCN4CCN(C)CC4)cc3)nc2-c2ccc(Cl)cc21 [Compound I-22, 4-[9-Chloro-7-(2-methoxy-phenyl)-5H-benzo[c]pyrimido[4,5-e]azepin-2-ylamino]-N-[3-(4-methyl-piperazin-1-yl)-propyl]-benzamide] | ≤ 1 µM
COc1cccc(Nc2ncc3c(n2)-c2ccc(Cl)cc2C(c2ccccc2F)=NC3)c1 [Compound I-39, [9-Chloro-7-(2-fluoro-phenyl)-5H-benzo[c]pyrimido[4,5-e]azepin-2-yl]-(3-methoxy-phenyl)-amine] | ≤ 1 µM
COc1ccc(Nc2ncc3c(n2)-c2ccc(C)cc2C(c2ccccc2F)=NC3)cc1OC [Compound I-75, (3,4-Dimethoxy-phenyl)-[7-(2-fluoro-phenyl)-9-methyl-5H-benzo[c]pyrimido[4,5-e]azepin-2-yl]-amine] | ≤ 1 µM
COc1ccccc1C1=NCc2cnc(Nc3ccc(C(=O)N4CCNC(C)C4)cc3)nc2-c2ccc(Cl)cc21 (stereo not drawn) [Compound I-329, 9-chloro-7-(2-methoxyphenyl)-N-{4-[(3-methylpiperazin-1-yl)carbonyl]phenyl}-5H-pyrimido[5,4-d][2]benzazepin-2-amine] | ≤ 1 µM
C[C@H]1CN(C(=O)c2ccc(Nc3ncc4c(n3)-c3ccc(Cl)cc3C(c3c(F)cccc3F)=NC4)cc2)CCN1 [Compound I-191, {4-[9-Chloro-7-(2,6-difluoro-phenyl)-5H-benzo[c]pyrimido[4,5-e]azepin-2-ylamino]-phenyl}-(3(S)-methyl-piperazin-1-yl)-methanone] | ≤ 1 µM
N=C(c1ccc(Nc2ncc3c(n2)-c2ccc(Cl)cc2C(c2c(F)cccc2F)=NC3)cc1)N1CCC(N)C1 (stereo not drawn) [Compound I-284] | ≤ 1 µM
O=C(c1ccc(Nc2ncc3c(n2)-c2ccc(Cl)cc2C(c2ccccc2F)=NC3)cc1)N1CCN(c2ncccn2)CC1 [Compound I-173, 9-Chloro-7-(2-fluorophenyl)-N-{4-[(4-pyrimidin-2-ylpiperazin-1-yl)carbonyl]phenyl}-5H-pyrimido[5,4-d][2]benzazepin-2-amine] | ≤ 1 µM
O=C(O)c1ccc(Nc2ncc3c(n2)-c2ccc(Br)cc2C(c2c(F)cccc2F)=NC3)cc1 [Compound I-274, 4-{[9-bromo-7-(2,6-difluorophenyl)-5H-pyrimido[5,4-d][2]benzazepin-2-yl]amino}benzoic acid] | ≤ 1 µM
O=C(c1ccc(Nc2ncc3c(n2)-c2ccc(Cl)cc2C(c2ccccc2F)=NC3)cc1)N1CCN(CCN2CCCCC2)CC1 [Compound I-182, {4-[9-Chloro-7-(2-fluoro-phenyl)-5H-benzo[c]pyrimido[4,5-e]azepin-2-ylamino]-phenyl}-[4-(2-piperidin-1-yl-ethyl)-piperazin-1-yl]-methanone] | ≤ 1 µM
NCC#Cc1ccc2c(c1)C(c1c(F)cccc1F)=NCc1cnc(Nc3ccc(C(=O)O)cc3)nc1-2 [Compound I-272, 4-{[9-(3-aminoprop-1-yn-1-yl)-7-(2,6-difluorophenyl)-5H-pyrimido[5,4-d][2]benzazepin-2-yl]amino}benzoic acid] | ≤ 1 µM
CNCCCNC(=O)c1ccc(Nc2ncc3c(n2)-c2ccc(Cl)cc2C(c2ccccc2F)=NC3)cc1 [Compound I-130, 4-[9-Chloro-7-(2-fluoro-phenyl)-5H-benzo[c]pyrimido[4,5-e]azepin-2-ylamino]-N-(3-methylamino-propyl)-benzamide] | ≤ 1 µM
COc1ccc(Nc2ncc3c(n2)-c2ccc(Cl)cc2C(c2ccccc2F)=NC3)cc1 [Compound I-37, [9-Chloro-7-(2-fluoro-phenyl)-5H-benzo[c]pyrimido[4,5-e]azepin-2-yl]-(4-methoxy-phenyl)-amine] | ≤ 1 µM
COc1cccc(F)c1C1=NCc2cnc(Nc3ccc(C(=O)N4CCC(N)C4)cc3)nc2-c2ccc(Cl)cc21 (stereo not drawn) [Compound I-240] | ≤ 1 µM
COc1ccccc1C1=NCc2cnc(Nc3ccc(C(=O)N4CCN(C)CC4)cc3)nc2-c2ccc(Cl)cc21 [Compound I-12, {4-[9-Chloro-7-(2-methoxy-phenyl)-5H-benzo[c]pyrimido[4,5-e]azepin-2-ylamino]-phenyl}-(4-methyl-piperazin-1-yl)-methanone] | ≤ 1 µM
COc1cccc(F)c1C1=NCc2cnc(Nc3ccc(C(=O)N4CC(N)C4)cc3)nc2-c2ccc(Cl)cc21 [Compound I-286] | ≤ 1 µM
NCc1nc2cc(Nc3ncc4c(n3)-c3ccc(Cl)cc3C(c3c(F)cccc3F)=NC4)ccc2o1 [Compound I-207, N-[2-(aminomethyl)-1,3-benzoxazol-5-yl]-9-chloro-7-(2,6-difluorophenyl)-5H-pyrimido[5,4-d][2]benzazepin-2-amine] | ≤ 1 µM
CNC1CCN(C(=O)c2ccc(Nc3ncc4c(n3)-c3ccc(Cl)cc3C(c3c(F)cccc3F)=NC4)cc2)CC1 [Compound I-220, 9-chloro-7-(2,6-difluorophenyl)-N-(4-{[4-(methylamino)piperidin-1-yl]carbonyl}phenyl)-5H-pyrimido[5,4-d][2]benzazepin-2-amine] | ≤ 1 µM
